From US20100168197A1, “MUSCARINIC RECEPTOR ANTAGONISTS” (priority 2007, published 2010)
Some of these results come from one statement about several compounds together.

The compounds below were run on M3 receptor (assay: Radioligand binding assay, [3H]-N-methylscopolamine, M3 receptor). Conditions: calculated from Ki values on human cloned receptor membranes (CHO cells).

| SMILES | Selectivity for M3 receptors as compared to M2 receptors, Ki(M2)/Ki(M3) |
| --- | --- |
| Cc1n(CCOC(=O)C(O)(c2ccc(F)cc2)c2ccc(F)cc2)cc[n+]1CC1CC1.[Br-] [Compound No. 61, 1-{2-[2,2-bis(4-Fluorophenyl)(hydroxy)acetoxy]ethyl}-3-(cyclopropylmethyl)-2-methyl-1H-imidazol-3-ium bromide] | not selective |
| Cc1n(CCCOC(=O)C(O)(c2cccs2)c2cccs2)cc[n+]1CCCOc1ccccc1.[Br-] [Compound No. 94, 1-{3-[2-Hydroxy(di-2-thienyl)acetoxy]propyl}-2-methyl-3-(3-phenoxypropyl)-1H-imidazol-3-ium bromide] | not selective |
| CC[n+]1ccn(CCCOC(=O)[C@](O)(c2ccccc2)[C@H]2CCC(F)(F)C2)c1C.[Br-] [Compound No. 101, 1-[3-({(2R)-2-[(1S)-3,3-Difluorocyclopentyl]-2-hydroxy-2-phenylacetyl}oxy)propyl]-3-ethyl-2-methyl-1H-imidazol-3-ium bromide] | not selective |
| CCC[n+]1ccn(CCCOC(=O)[C@](O)(c2ccccc2)[C@H]2CCC(F)(F)C2)c1C.[Br-] [Compound No. 102, 1-[3-({(2R)-2-[(1S)-3,3-Difluorocyclopentyl]-2-hydroxy-2-phenylacetyl}oxy)propyl]-2-methyl-3-propyl-1H-imidazol-3-ium bromide] | not selective |
| CCCC[n+]1ccn(CCCOC(=O)[C@](O)(c2ccccc2)[C@H]2CCC(F)(F)C2)c1C.[Br-] [Compound No. 103, 3-Butyl-1-[3-({(2R)-2-[(1S)-3,3-difluorocyclopentyl]-2-hydroxy-2-phenylacetyl}oxy)propyl]-2-methyl-1H-imidazol-3-ium bromide] | not selective |
| CCCCC[n+]1ccn(CCCOC(=O)[C@](O)(c2ccccc2)[C@H]2CCC(F)(F)C2)c1C.[Br-] [Compound No. 104, 1-[3-({(2R)-2-[(1S)-3,3-Difluorocyclopentyl]-2-hydroxy-2-phenylacetyl}oxy)propyl]-2-methyl-3-pentyl-1H-imidazol-3-ium bromide] | not selective |
| CC[n+]1ccn(CCCOC(=O)[C@](O)(c2ccccc2)[C@H]2CCCC(F)(F)C2)c1C.[Br-] [Compound No. 105, 1-[3-({(2R)-2-[(1S)-3,3-Difluorocyclohexyl]-2-hydroxy-2-phenylacetyl}oxy)propyl]-3-ethyl-2-methyl-1H-imidazol-3-ium bromide] | not selective |
| CCC[n+]1ccn(CCCOC(=O)[C@](O)(c2ccccc2)[C@H]2CCCC(F)(F)C2)c1C.[Br-] [Compound No. 106, 1-[3-({(2R)-2-[(1S)-3,3-Difluorocyclohexyl]-2-hydroxy-2-phenylacetyl}oxy)propyl]-2-methyl-3-propyl-1H-imidazol-3-ium bromide] | not selective |
